Some of these results come from one statement about several compounds together. d = 2'-deoxy (DNA); r = 2'-OH (RNA)
Assays:
TSP1 mRNA = TSP1 mRNA level in C4-2 cells, real-time RT-PCR normalized to cyclophilin A; format: cell-based, human; details: 48 h after siRNA transfection
Description: (§1) LNCaP and C4-2 cells were grown in RMPI containing 10% fetal calf serum, PC-3 cells in DMEM containing 10% fetal calf serum. The Hiperfect reagent (Qiagen, Courtaboeuf, France) was used to transfect cells in 24 wells plates with the indicated siRNAs (10 nM) as recommended by the manufacturer. A metabolic activity assay (WST1, Roche Diagnostics, Meylan France) was used to measure cell proliferation. To mimic hypoxia, cells were grown in the presence of 300 μM cobalt chloride for 48 h. For hypoxic conditions, cells were cultured at 37° C. with 5% CO2, 94% N2 and 1% O2 in a hypoxic incubator (Binder GmbH, Tuttligen, France).
Total RNA was isolated using TRIzol reagent (Invitrogen, Cergy Pontoise, France). RNA were retrotranscribed using a High capacity cDNA Reverse Transcription Kit (Applied Biosystems, Courtaboeuf, France). cDNA was quantified by real time PCR using the Power SYBR® Green PCR Master Mix (Applied Biosystems, Courtaboeuf, France). Human Cyclophilin A was used as an internal control. The sequences of the PCR primers are indicated in the supplementary table 2.

TSP1 = TSP1 protein expression in C4-2 cells (indirect immunofluorescence); format: cell-based, human; details: 48 h after siRNA transfection
Description: FIG. […]
as §1

Substance | silenced TSP1 expression at the mRNA level (TSP1 mRNA) | silenced TSP1 expression at the protein level (TSP1)
TSP1a-siRNA: Duplex CCUUGACAACAACGUGGUGdTdT / CACCACGUUGUUGUCAAGGdTdT targeting TSP1 mRNA, sequence conserved between human and mouse (sense CCUUGACAACAACGUGGUGTT; antisense CACCACGUUGUUGUCAAGGTT; sugars from the 5' end r19 d2, backbone not given here) | over 70% | over 70%
TSP1b-siRNA: Duplex UACCCGAGACGAUUGUAUGdTdT / CAUACAAUCGUCUCGGGUAdTdT targeting specifically the human TSP1 mRNA (sense UACCCGAGACGAUUGUAUGTT; antisense CAUACAAUCGUCUCGGGUATT; sugars from the 5' end r19 d2, backbone not given here) | over 70% | over 70%
